Source: the supplement of paper PMC10849652
The other results are listed elsewhere or left out.

The chains behind the UniProt entries cited, without tags or fusion partners. Where a name states a change or a piece, a line headed by the entry shows the natural chain unless it says otherwise.
UniProt P30304: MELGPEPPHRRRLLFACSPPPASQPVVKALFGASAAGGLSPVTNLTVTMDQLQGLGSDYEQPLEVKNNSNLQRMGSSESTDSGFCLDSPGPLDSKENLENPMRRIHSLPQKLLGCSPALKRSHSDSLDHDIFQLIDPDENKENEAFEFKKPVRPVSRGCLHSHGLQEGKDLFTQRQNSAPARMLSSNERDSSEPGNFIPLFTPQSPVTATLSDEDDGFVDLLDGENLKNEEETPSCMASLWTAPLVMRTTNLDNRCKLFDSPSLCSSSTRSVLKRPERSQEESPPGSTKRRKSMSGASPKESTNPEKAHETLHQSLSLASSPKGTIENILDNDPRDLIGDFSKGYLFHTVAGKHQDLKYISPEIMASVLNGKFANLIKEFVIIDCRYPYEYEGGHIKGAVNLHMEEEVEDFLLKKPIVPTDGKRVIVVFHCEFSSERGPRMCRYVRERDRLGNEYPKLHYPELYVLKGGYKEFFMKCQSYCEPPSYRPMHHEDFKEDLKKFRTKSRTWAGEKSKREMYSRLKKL
UniProt Q8ND76: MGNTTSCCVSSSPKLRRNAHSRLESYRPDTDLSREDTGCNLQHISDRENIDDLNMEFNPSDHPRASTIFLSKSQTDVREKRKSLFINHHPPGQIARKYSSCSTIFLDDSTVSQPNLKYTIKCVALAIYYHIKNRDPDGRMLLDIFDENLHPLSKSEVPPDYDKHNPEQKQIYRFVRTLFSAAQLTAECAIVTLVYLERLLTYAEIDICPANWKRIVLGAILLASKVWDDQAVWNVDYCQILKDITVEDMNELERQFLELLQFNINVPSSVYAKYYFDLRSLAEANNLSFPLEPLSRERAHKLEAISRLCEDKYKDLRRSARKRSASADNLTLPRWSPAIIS
UniProt Q8N9Z2: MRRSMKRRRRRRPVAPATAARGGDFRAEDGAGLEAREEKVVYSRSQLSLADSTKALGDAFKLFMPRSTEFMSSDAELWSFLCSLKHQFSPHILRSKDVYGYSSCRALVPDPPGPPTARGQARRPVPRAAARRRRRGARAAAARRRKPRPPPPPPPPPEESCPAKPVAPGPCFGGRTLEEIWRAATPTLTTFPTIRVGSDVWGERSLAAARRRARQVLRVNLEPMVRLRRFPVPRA
UniProt Q15834: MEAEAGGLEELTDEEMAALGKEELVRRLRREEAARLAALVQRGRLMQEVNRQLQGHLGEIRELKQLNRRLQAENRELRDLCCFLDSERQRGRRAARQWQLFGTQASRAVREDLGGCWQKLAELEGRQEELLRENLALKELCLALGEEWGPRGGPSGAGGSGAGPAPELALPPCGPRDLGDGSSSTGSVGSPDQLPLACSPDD
UniProt P55211: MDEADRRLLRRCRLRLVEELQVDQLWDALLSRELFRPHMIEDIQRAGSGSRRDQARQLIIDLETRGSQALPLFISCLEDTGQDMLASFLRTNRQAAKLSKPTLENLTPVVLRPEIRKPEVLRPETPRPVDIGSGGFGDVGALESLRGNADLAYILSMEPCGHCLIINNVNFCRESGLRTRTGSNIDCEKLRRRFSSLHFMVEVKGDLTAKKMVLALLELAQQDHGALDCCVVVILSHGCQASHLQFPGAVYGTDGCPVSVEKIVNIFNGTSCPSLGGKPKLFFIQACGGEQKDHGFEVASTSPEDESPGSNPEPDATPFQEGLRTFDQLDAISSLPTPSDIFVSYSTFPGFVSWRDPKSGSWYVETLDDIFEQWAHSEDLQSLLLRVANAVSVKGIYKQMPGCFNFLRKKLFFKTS
UniProt Q9BSQ5: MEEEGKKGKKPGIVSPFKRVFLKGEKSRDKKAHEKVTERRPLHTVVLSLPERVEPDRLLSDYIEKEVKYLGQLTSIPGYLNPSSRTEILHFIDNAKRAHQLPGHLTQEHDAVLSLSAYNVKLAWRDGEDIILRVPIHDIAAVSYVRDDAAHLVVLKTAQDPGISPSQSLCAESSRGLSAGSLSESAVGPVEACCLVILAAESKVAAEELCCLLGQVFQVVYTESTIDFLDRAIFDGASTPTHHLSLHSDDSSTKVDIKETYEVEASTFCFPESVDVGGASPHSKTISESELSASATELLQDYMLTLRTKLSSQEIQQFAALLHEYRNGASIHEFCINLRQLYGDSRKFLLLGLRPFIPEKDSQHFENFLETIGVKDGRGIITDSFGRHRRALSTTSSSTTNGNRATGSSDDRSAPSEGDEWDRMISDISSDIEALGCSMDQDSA
UniProt Q6PK04: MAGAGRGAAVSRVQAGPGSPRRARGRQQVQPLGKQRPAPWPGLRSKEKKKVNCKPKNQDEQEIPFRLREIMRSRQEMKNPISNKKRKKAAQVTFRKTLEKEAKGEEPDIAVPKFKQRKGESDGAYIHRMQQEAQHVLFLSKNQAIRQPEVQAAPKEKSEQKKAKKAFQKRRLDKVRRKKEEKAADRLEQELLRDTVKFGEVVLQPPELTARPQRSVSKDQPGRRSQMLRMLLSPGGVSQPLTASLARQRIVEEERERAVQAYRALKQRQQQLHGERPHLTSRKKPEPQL
UniProt Q92851: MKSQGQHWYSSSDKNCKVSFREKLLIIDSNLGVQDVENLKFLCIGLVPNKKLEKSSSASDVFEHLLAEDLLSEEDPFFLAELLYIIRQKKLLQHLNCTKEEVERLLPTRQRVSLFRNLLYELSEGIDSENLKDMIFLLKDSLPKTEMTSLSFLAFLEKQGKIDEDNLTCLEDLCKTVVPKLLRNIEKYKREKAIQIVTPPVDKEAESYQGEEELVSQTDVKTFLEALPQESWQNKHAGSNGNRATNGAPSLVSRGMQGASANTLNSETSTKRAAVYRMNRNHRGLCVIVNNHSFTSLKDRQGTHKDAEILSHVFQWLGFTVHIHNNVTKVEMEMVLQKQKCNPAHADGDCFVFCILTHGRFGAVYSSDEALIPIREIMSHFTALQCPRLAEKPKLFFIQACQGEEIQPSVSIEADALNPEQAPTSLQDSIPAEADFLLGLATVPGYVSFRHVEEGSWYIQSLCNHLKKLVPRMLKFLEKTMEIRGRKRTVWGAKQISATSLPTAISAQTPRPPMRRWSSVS
UniProt Q75N03: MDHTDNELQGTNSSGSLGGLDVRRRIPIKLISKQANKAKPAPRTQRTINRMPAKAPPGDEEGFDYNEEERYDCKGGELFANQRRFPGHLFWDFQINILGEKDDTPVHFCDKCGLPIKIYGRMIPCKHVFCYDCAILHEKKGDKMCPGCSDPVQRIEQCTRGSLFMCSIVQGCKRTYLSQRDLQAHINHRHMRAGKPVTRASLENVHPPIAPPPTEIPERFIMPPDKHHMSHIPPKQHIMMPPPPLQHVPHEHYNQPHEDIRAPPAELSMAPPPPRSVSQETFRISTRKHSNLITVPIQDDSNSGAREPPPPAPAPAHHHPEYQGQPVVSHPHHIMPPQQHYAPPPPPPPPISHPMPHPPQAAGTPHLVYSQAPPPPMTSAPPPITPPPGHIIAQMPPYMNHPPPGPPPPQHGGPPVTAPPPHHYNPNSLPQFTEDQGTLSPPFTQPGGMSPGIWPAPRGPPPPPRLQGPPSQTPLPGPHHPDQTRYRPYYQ
UniProt Q2TAC2: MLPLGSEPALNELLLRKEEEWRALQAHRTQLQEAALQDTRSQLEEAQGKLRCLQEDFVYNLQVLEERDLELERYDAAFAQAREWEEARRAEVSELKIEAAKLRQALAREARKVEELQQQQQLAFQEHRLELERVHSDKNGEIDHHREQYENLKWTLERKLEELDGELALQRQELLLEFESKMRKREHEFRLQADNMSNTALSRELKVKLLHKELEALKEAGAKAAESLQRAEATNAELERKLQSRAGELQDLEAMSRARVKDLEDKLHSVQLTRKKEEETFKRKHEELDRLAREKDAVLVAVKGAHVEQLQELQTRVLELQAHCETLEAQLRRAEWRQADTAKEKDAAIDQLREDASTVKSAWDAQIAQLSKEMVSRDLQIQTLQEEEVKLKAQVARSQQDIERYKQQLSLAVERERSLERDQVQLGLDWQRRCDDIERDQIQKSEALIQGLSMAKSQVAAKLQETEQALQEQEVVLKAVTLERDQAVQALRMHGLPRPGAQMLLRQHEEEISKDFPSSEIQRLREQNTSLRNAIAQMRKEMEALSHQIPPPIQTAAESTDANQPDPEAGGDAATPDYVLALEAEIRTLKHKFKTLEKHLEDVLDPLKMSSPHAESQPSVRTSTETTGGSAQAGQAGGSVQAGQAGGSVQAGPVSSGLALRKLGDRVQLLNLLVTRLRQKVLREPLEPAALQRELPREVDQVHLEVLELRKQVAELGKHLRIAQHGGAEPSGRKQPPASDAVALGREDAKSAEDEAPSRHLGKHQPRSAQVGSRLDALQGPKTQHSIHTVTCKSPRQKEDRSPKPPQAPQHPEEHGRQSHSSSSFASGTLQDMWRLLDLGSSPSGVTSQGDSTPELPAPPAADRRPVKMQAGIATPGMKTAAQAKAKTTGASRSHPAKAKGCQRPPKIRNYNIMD

Key:
Experiment in all cases: log2 fold change, soluble protein after heating vs DMSO (PISA); higher = thermal stabilisation; K562 cells, 10 uM, 30 min; active = over 0.2 and 3.5 SD of the protein, either way, in both replicates (recomputed)
[1] = compound: CC[C@@H]1C(=O)N(C)c2cnc(Nc3ccc(C(=O)NC4CCN(C)CC4)cc3OC)nc2N1C1CCCC1
Summary of the method: (§1)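 K562 cells at 2×10^6 cells/mL were treated with 10 μM compound for 30 min. Aliquots were heated for 3 min across 48°C-58°C, pooled, and extracted in PBS with 0.5% NP-40 at 4°C; soluble protein was the supernatant after 21,000xg for 90 min. Soluble protein was quantified by TMTpro 16plex LC-MS/MS with channel sums equalised, and reported as log2 fold change in thermal stability against DMSO controls, with values from duplicates.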

[2] = compound: CC[C@H](C)N1C=C(C2=C(C=C(C=C21)C3=CN=C(C=C3)N4CCNCC4)C(=O)NCC5=C(C=C(NC5=O)C)C)C
Summary of the method: as §1

epoxomicin = compound: CC[C@H](C)[C@@H](C(=O)N[C@@H]([C@@H](C)O)C(=O)N[C@@H](CC(C)C)C(=O)[C@]1(CO1)C)NC(=O)[C@H]([C@@H](C)CC)N(C)C(=O)C [epoxomicin]
Summary of the method: as §1

[3] = compound: CCn1c(C(=O)N(C2CC2)C2CC2)cc2c3c(ncn3C)c(Nc3cc(C)n(C)n3)nc21
Summary of the method: as §1

rosiglitazone = compound: CN(CCOC1=CC=C(C=C1)C[C@H]2C(=O)NC(=O)S2)C3=CC=CC=N3 (racemic) [rosiglitazone]
Summary of the method: as §1

sotrastaurin = compound: CN1CCN(c2nc(C3=C(c4c[nH]c5ccccc45)C(=O)NC3=O)c3ccccc3n2)CC1 [sotrastaurin]
Summary of the method: as §1

[4] = compound: CNC(=O)C1=CC=CC=C1NC2=NC(=NC=C2Cl)NC3=C(C=C(C=C3)N4CCOCC4)OC
Summary of the method: as §1

rucaparib = compound: CNCc1ccc(-c2[nH]c3cc(F)cc4c3c2CCNC4=O)cc1 [rucaparib]
Summary of the method: as §1

encorafenib = compound: COC(=O)N[C@@H](C)CNc1nccc(-c2cn(C(C)C)nc2-c2cc(Cl)cc(NS(C)(=O)=O)c2F)n1 [encorafenib]
Summary of the method: as §1

volasertib = compound: CC[C@@H]1C(=O)N(C)c2cnc(Nc3ccc(C(=O)N[C@H]4CC[C@H](N5CCN(CC6CC6)CC5)CC4)cc3OC)nc2N1C(C)C [volasertib]
Summary of the method: as §1

[5] = compound: CCn1cc(-c2ccnc3[nH]c(-c4cccc(CN(C)C)c4)cc23)c(-c2ccc(NC(=O)N(C)C)cc2)n1
Summary of the method: as §1

[6] = compound: CN(C)CC(=O)Nc1ccc2[nH]c(=O)c3ccccc3c2c1
Summary of the method: as §1

[7] = compound: CN1C2=C(C3=C1C(=O)N(N=C3)CC4=CC(=CC=C4)N)SC(=C2)S(=O)C
Summary of the method: as §1

[8] = compound: CN1CCC(CNc2ccc3ncc(-c4cccc(OC(F)(F)F)c4)n3n2)CC1
Summary of the method: as §1

saracatinib = compound: CN1CCN(CCOc2cc(OC3CCOCC3)c3c(Nc4c(Cl)ccc5c4OCO5)ncnc3c2)CC1 [saracatinib]
Summary of the method: as §1

alvocidib = compound: CN1CC[C@H](c2c(O)cc(O)c3c(=O)cc(-c4ccccc4Cl)oc23)[C@H](O)C1 [alvocidib]
Summary of the method: as §1

Tubastatin A = compound: CN1CCc2c(c3ccccc3n2Cc2ccc(C(=O)NO)cc2)C1 [Tubastatin A]
Summary of the method: as §1

defactinib = compound: CNC(=O)c1ccc(Nc2ncc(C(F)(F)F)c(NCc3nccnc3N(C)S(C)(=O)=O)n2)cc1 [defactinib]
Summary of the method: as §1

[9] = compound: CNc1nc(-c2ccc3c(N)n[nH]c3c2)cc(N2C[C@@H](C(=O)NC3CCCCC3)CC[C@H]2C)n1
Summary of the method: as §1

[10] = compound: COC(=O)[C@H](CCSC)NC(=O)C1=C(C=C(C=C1)NC[C@H](CS)N)C2=CC=CC=C2
Summary of the method: as §1

Target	log2 fold change [1]	log2 fold change [2]	log2 fold change (epoxomicin)	log2 fold change [3]	log2 fold change (rosiglitazone)	log2 fold change (sotrastaurin)	log2 fold change [4]	log2 fold change (rucaparib)	log2 fold change (encorafenib)	log2 fold change (volasertib)	log2 fold change [5]	log2 fold change [6]	log2 fold change [7]	log2 fold change [8]	log2 fold change (saracatinib)	log2 fold change (alvocidib)	log2 fold change (Tubastatin A)	log2 fold change (defactinib)	log2 fold change [9]	log2 fold change [10]
CDC25A (UniProt P30304)	inactive: 0.054	inactive: -0.022	inactive: -0.007	inactive: -0.05	inactive: -0.008	inactive: 0.03	inactive: -0.042	inactive: -0.002	inactive: -0.051											
CCNY (UniProt Q8ND76)		inactive: -0.037	inactive: 0.006	inactive: 0.054	inactive: 0.03	inactive: -0.034	inactive: -0.013			inactive: -0.076	inactive: 0.171	inactive: -0.065	inactive: -0.014	inactive: 0.14	inactive: -0.034	inactive: 0.168	inactive: -0.03	inactive: -0.02	inactive: 0.001	inactive: -0.024
CCDC71L isoform 2 (UniProt Q8N9Z2)	inactive: 0.113		inactive: -0.03	inactive: -0.138	inactive: 0.076	inactive: 0.036	inactive: 0.056	inactive: -0.465	inactive: 0.124							inactive: 0.194	inactive: -0.061			
CCDC85B (UniProt Q15834)	inactive: 0.175			inactive: 0.172	inactive: -0.139	inactive: -0.327	inactive: -0.182	inactive: -0.103	inactive: -0.066	inactive: 0.119	inactive: 0.09	inactive: -0.012	inactive: 0.132	inactive: -0.05	inactive: -0.106	inactive: 0.015	inactive: 0.021	inactive: 0.009	inactive: 0.056	inactive: 0.016
CASP9 (UniProt P55211)	inactive: -0.083	inactive: 0.008	inactive: 0.054			inactive: -0.25		inactive: 0.161	inactive: 0.012	active: -0.629	inactive: 0.035	inactive: 0.048	inactive: 0.001	inactive: -0.188	inactive: -0.206		inactive: 0.098	inactive: -0.165	inactive: -0.051	inactive: -0.035
CCM2 isoform 2 (UniProt Q9BSQ5)	inactive: -0.207		inactive: 0.102			inactive: 0.056	inactive: -0.061	inactive: 0.03	inactive: 0.118	active: -0.412	inactive: -0.017	inactive: -0.01	inactive: -0.012	inactive: -0.233	inactive: -0.01		inactive: 0.073	inactive: -0.107	inactive: 0.087	inactive: -0.033
CCDC137 (UniProt Q6PK04)	inactive: 0.27	inactive: -0.007	inactive: -0.008	inactive: -0.036	inactive: -0.325	inactive: 0.006	inactive: -0.025	inactive: 0.56	inactive: 0.083		inactive: 0.116	inactive: -0.172	inactive: 0.297	inactive: 0.365	inactive: 0.047	inactive: 0.579	inactive: 0.177	inactive: 0.685	inactive: 0.118	inactive: -0.101
CASP10 isoform 4 (UniProt Q92851)	inactive: -0.091	inactive: 0.015	inactive: 0.004			inactive: -0.138		inactive: 0.111	inactive: 0.164	active: -0.582	inactive: 0.121	inactive: -0.016	inactive: 0.023	inactive: -0.331	inactive: 0.034		inactive: 0.127	inactive: 0.028	inactive: 0.04	inactive: -0.039
CBLL1 (UniProt Q75N03)	inactive: 0.122	inactive: 0.218		inactive: -0.023		inactive: 0.127	inactive: 0.014	inactive: 0.002	inactive: 0.027	inactive: -0.154		inactive: -0.097	inactive: -0.025		inactive: -0.023	inactive: -0.123	inactive: -0.064	inactive: -0.031	inactive: 0.153	inactive: 0.082
CDC37 (UniProt K7EL68)	inactive: 0.013	inactive: 0.039	inactive: 0.032		inactive: 0.121	inactive: -0.191		inactive: -0.057	inactive: 0.215	inactive: -0.14		inactive: -0.027	inactive: -0.068		inactive: -0.173	inactive: -0.253		inactive: 0.049	inactive: 0.118	inactive: 0.079
CCDC57 (UniProt Q2TAC2)	inactive: -0.033	inactive: -0.043	inactive: -0.059			inactive: 0.059	inactive: 0.04	inactive: -0.15	inactive: 0.041	inactive: 0.012		inactive: -0.034					inactive: 0.026	inactive: 0.02		inactive: 0.007

2 neighbouring records from above, for reference:
Target	log2 fold change [1]	log2 fold change [2]	log2 fold change (epoxomicin)	log2 fold change [3]	log2 fold change (rosiglitazone)	log2 fold change (sotrastaurin)	log2 fold change [4]	log2 fold change (rucaparib)	log2 fold change (encorafenib)	log2 fold change (volasertib)	log2 fold change [5]	log2 fold change [6]	log2 fold change [7]	log2 fold change [8]	log2 fold change (saracatinib)	log2 fold change (alvocidib)	log2 fold change (Tubastatin A)	log2 fold change (defactinib)	log2 fold change [9]	log2 fold change [10]
CCDC85B (UniProt Q15834)	inactive: 0.175			inactive: 0.172	inactive: -0.139	inactive: -0.327	inactive: -0.182	inactive: -0.103	inactive: -0.066	inactive: 0.119	inactive: 0.09	inactive: -0.012	inactive: 0.132	inactive: -0.05	inactive: -0.106	inactive: 0.015	inactive: 0.021	inactive: 0.009	inactive: 0.056	inactive: 0.016
CASP9 (UniProt P55211)	inactive: -0.083	inactive: 0.008	inactive: 0.054			inactive: -0.25		inactive: 0.161	inactive: 0.012	active: -0.629	inactive: 0.035	inactive: 0.048	inactive: 0.001	inactive: -0.188	inactive: -0.206		inactive: 0.098	inactive: -0.165	inactive: -0.051	inactive: -0.035
